Results reported in article PMC4455283, “Crystal structure of TRIM20 C-terminal coiled-coil/B30.2 fragment: implications for the recognition of higher order oligomers” (Scientific Reports, 2015).
No constants are given. Whether binding was seen depends on the method and setting. For some of these results: A result given as binding can be weak or reduced; the word gives no strength. For some of these results: In cells and extracts the contact can be indirect.

Sequences of proteins named here, by UniProt entry; tags and fusion partners are left off. A change or cut given only in a name is not applied to a line headed by its entry.
UniProt P01584: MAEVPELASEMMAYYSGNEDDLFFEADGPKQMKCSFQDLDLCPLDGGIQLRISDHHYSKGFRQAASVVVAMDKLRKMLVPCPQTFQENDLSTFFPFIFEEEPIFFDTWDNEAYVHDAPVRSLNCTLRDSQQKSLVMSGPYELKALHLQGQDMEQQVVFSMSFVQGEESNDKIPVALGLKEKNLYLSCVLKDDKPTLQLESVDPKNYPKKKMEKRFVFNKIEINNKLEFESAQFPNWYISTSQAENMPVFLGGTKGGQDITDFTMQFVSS

Experiments:
pro-interleukin-1β [1] = target: T1, pro-interleukin-1β (UniProt P01584 1-269); assay: co-IP; 10 μM TRIM20 construct incubated with 10 μg purified FLAG-tagged pro-IL-1β in 100 μl; precipitated with ANTI-FLAG M2 Affinity Gel; SDS-PAGE; both purified
T1 construct: pro-interleukin-1β (uncleaved precursor of IL-1β); Printed mass 31.9 kDa; The FLAG tag is named for the co-immunoprecipitation; also called pro-IL-1β; FLAG-tagged pro-IL-1β; source: purified

pro-interleukin-1β [2] = target: T1, pro-interleukin-1β; assay: SEC; TRIM20Δ413 and pro-IL-1β incubated at 4 °C before SEC; both purified
pro-interleukin-1β [3] = target: T1, pro-interleukin-1β; assay: SEC; TRIM20Δ413 and pro-IL-1β incubated at 25 °C (1 h or longer) before SEC; co-elution verified by SDS-PAGE; both purified

Binder | binding (pro-interleukin-1β [1]) | binding (pro-interleukin-1β [2]) | binding (pro-interleukin-1β [3])
TRIM20Δ413 (TRIM20 coiled-coil/B30.2 fragment) (domain or fragment, human, UniProt O15553 414-781, looked up, TRIM20 (pyrin, marenostrin), human, UniProt O15553; construct starting with E414, comprising the CHS (coiled-coil, E414-N586) and B30.2 (E589-G776) domains; Calculated monomer mass printed as 42 737 Da (85.7 kDa dimer); also called CHS-B30.2; TRIM20 C-terminal coiled-coil/B30.2 fragment; source: purified) EVALEHKKKIQKQLEHLKKLRKSGEEQRSYGEEKAVSFLKQTEALKQRVQRKLEQVYYFLEQQEHFFVASLEDVGQMVGQIRKAYDTRVSQDIALLDALIGELEAKECQSEWELLQDIGDILHRAKTVPVPEKWTTPQEIKQKIQLLHQKSEFVEKSTKYFSETLRSEMEMFNVPELIGAQAHAVNVILDAETAYPNLIFSDDLKSVRLGNKWERLPDGPQRFDSCIIVLGSPSFLSGRRYWEVEVGDKTAWILGACKTSISRKGNMTLSPENGYWVVIMMKENEYQASSVPPTRLLIKEPPKRVGIFVDYRVGSISFYNVTARSHIYTFASCSFSGPLQPIFSPGTRDGGKNTAPLTICPVGGQGPD | binds | no binding (only after incubation at 4 °C) | binds
isolated TRIM20 B30.2 domain (domain or fragment, UniProt O15553 577-781) TLRSEMEMFNVPELIGAQAHAVNVILDAETAYPNLIFSDDLKSVRLGNKWERLPDGPQRFDSCIIVLGSPSFLSGRRYWEVEVGDKTAWILGACKTSISRKGNMTLSPENGYWVVIMMKENEYQASSVPPTRLLIKEPPKRVGIFVDYRVGSISFYNVTARSHIYTFASCSFSGPLQPIFSPGTRDGGKNTAPLTICPVGGQGPD | no binding (tested: 10 μM) |  | 
